Taken from: PubChem BioAssay AID602196 (INSERM, 2012)
Shown is an unselected part of about 23,000 reagents tested. 455 of all reagents (2%) count as active. 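Active includes both protection and sensitisation; some change values fall well beyond the stated -50 to +50 range.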 Not all columns of the deposit are shown. The record does not give: the amount of reagent.

Purpose: 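Modifiers of cisplatin sensitivity in A549 cells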
System: human A549 lung cancer cells
Knock-down reagent: siRNA pair against human genes
Timing: 48 h transfection before cisplatin; time from cisplatin to read-out not stated
Conditions: cisplatin at a dose killing half of control-siRNA cells; exact dose and duration not given
Measured: 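Shift in cisplatin death relative to control siRNA, from -50 (all cells die) to +50 (no cells die); siRNAs harmful on their own scored 0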
Reading the numbers: two-siRNA summed score (-2 to +2): higher = both siRNAs protect from cisplatin killing; -2 means both sensitise; mean protection from cisplatin (shift in death): higher = protection from cisplatin killing
Active means: 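siRNAs harmful alone (LDH or WST-1) get 0; others get +1 for less and -1 for more cisplatin killing; genes are active when the two siRNAs give the same sign, summing to ±2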
Meaning of the calls: active = both siRNAs shift cisplatin killing the same way; inactive = no consistent shift, or siRNA harmful alone

Depletion of DCLK3 (GeneID 85443) gave: two-siRNA summed score (-2 to +2) = 0; mean protection from cisplatin (shift in death) (%) = 15.4; inactive.
LOC400614 scored two-siRNA summed score (-2 to +2) = 0; mean protection from cisplatin (shift in death) (%) = -0.6; inactive.
Against RNF39 (GeneID 80352) the deposit lists two-siRNA summed score (-2 to +2) = 0; mean protection from cisplatin (shift in death) (%) = 15.1; inactive.
SLC2A2 (GeneID 6514) scored two-siRNA summed score (-2 to +2) = 0; mean protection from cisplatin (shift in death) (%) = 14.8; inactive.
TRABD (GeneID 80305) gave two-siRNA summed score (-2 to +2) = 0; mean protection from cisplatin (shift in death) (%) = -1.4; inactive.
Depletion of LOC441463 resulted in: two-siRNA summed score (-2 to +2) = 0; mean protection from cisplatin (shift in death) (%) = 6.5; inactive.
TBXAS1 (GeneID 6916) gave two-siRNA summed score (-2 to +2) = 0; mean protection from cisplatin (shift in death) (%) = -28.6; inactive.
Depletion of LGALS9 (GeneID 3965) resulted in: two-siRNA summed score (-2 to +2) = 0; mean protection from cisplatin (shift in death) (%) = 6.4; inactive.
DPY19L3 (GeneID 147991) gave two-siRNA summed score (-2 to +2) = 1; mean protection from cisplatin (shift in death) (%) = 5.8; inactive.
With knock-down of ANKIB1 (GeneID 54467) the results were two-siRNA summed score (-2 to +2) = 0; mean protection from cisplatin (shift in death) (%) = 9.1; inactive.
For CNGA1 (GeneID 1259) the deposit lists two-siRNA summed score (-2 to +2) = 0; mean protection from cisplatin (shift in death) (%) = -0.4; inactive.
Knock-down of CUX2 (GeneID 23316) came out at: two-siRNA summed score (-2 to +2) = 0; mean protection from cisplatin (shift in death) (%) = -3.9; inactive.

3 entries from above, sorted by “mean protection from cisplatin (shift in death) (%)”, lowest first:
DPY19L3 (GeneID 147991) → two-siRNA summed score (-2 to +2) = 1; mean protection from cisplatin (shift in death) (%) = 5.8; Outcome = inactive
LGALS9 (GeneID 3965) → two-siRNA summed score (-2 to +2) = 0; mean protection from cisplatin (shift in death) (%) = 6.4; Outcome = inactive
ANKIB1 (GeneID 54467) → two-siRNA summed score (-2 to +2) = 0; mean protection from cisplatin (shift in death) (%) = 9.1; Outcome = inactive

The results go on:
With knock-down of HDC (GeneID 3067), the record shows two-siRNA summed score (-2 to +2) = 0; mean protection from cisplatin (shift in death) (%) = 2.9; inactive.
MGRN1 (GeneID 23295) gave two-siRNA summed score (-2 to +2) = 0; mean protection from cisplatin (shift in death) (%) = 10.2; inactive.
For FLJ43808, the entry reads two-siRNA summed score (-2 to +2) = -1; mean protection from cisplatin (shift in death) (%) = -4.1; inactive.
Silencing of KRT27 (GeneID 342574) resulted in: two-siRNA summed score (-2 to +2) = 1; mean protection from cisplatin (shift in death) (%) = 22.7; inactive.
Against LOC441956 (retired record) (GeneID 441956), the values are two-siRNA summed score (-2 to +2) = 0; mean protection from cisplatin (shift in death) (%) = 5.6; inactive.
Against WEE1 (GeneID 7465), the entry reads two-siRNA summed score (-2 to +2) = 0; mean protection from cisplatin (shift in death) (%) = 8.8; inactive.
Silencing of PLRG1 (GeneID 5356) gave: two-siRNA summed score (-2 to +2) = 1; mean protection from cisplatin (shift in death) (%) = 6.3; inactive.
Knock-down of NSUN4 (GeneID 387338) came out at: two-siRNA summed score (-2 to +2) = 0; mean protection from cisplatin (shift in death) (%) = 2; inactive.
For GABRD (GeneID 2563), the values are two-siRNA summed score (-2 to +2) = 0; mean protection from cisplatin (shift in death) (%) = 28.2; inactive.
With knock-down of LRRN2 (GeneID 10446), the record shows two-siRNA summed score (-2 to +2) = -1; mean protection from cisplatin (shift in death) (%) = 12.1; inactive.
PALS1 (GeneID 64398) scored two-siRNA summed score (-2 to +2) = 0; mean protection from cisplatin (shift in death) (%) = 4; inactive.
Silencing of OR51A7 (GeneID 119687) came out at: two-siRNA summed score (-2 to +2) = 0; mean protection from cisplatin (shift in death) (%) = 14.3; inactive.
For AP2A1 (GeneID 160) the deposit lists two-siRNA summed score (-2 to +2) = 0; mean protection from cisplatin (shift in death) (%) = 24.4; inactive.
NSG1 (GeneID 27065) scored two-siRNA summed score (-2 to +2) = 0; mean protection from cisplatin (shift in death) (%) = -16.3; inactive.
Against TMEM33 (GeneID 55161), the entry reads two-siRNA summed score (-2 to +2) = 0; mean protection from cisplatin (shift in death) (%) = 5.6; inactive.
FILIP1 (GeneID 27145) gave two-siRNA summed score (-2 to +2) = 0; mean protection from cisplatin (shift in death) (%) = 5.9; inactive.
After knock-down of PIM3 (GeneID 415116) the results were two-siRNA summed score (-2 to +2) = 1; mean protection from cisplatin (shift in death) (%) = 10.3; inactive.
Depletion of LOC389233 gave: two-siRNA summed score (-2 to +2) = 0; mean protection from cisplatin (shift in death) (%) = 6.8; inactive.
Knock-down of ATXN7L1 (GeneID 222255) gave: two-siRNA summed score (-2 to +2) = 0; mean protection from cisplatin (shift in death) (%) = 12.2; inactive.
